Measurements reported in PubChem BioAssay AID602196 (INSERM, 2012).
Here is an unselected part of about 23,000 reagents. 455 of all reagents (2%) were called active. 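Active includes both protection and sensitisation; some change values fall well beyond the stated -50 to +50 range.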 A number with no mark means an inactive call. Further read-outs or replicates are left out here. Not stated in the record: the amount of reagent.

Aim: 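Genes whose knock-down alters cisplatin killing of lung cancer cells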
Cell system: human A549 lung cancer cells
Reagents: siRNA pair against human genes
Timing: 48 h transfection before cisplatin; time from cisplatin to read-out not stated
Challenge: cisplatin at a dose killing half of control-siRNA cells; exact dose and duration not given
Measured: 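Cisplatin cell death as a shift from the 50% death seen with control siRNA; siRNAs toxic or growth-blocking alone scored 0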
Reading the numbers: two-siRNA summed score (-2 to +2): higher = both siRNAs protect from cisplatin killing; -2 means both sensitise
Active means: 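siRNAs harmful alone (LDH or WST-1) get 0; others get +1 for less and -1 for more cisplatin killing; genes are active when the two siRNAs give the same sign, summing to ±2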
Calls: active = both siRNAs shift cisplatin killing the same way; inactive = no consistent shift, or siRNA harmful alone

ANKRD45 (ankyrin repeat domain 45) [SID131520366]
- two-siRNA summed score (-2 to +2): 1

ZNF462 (zinc finger protein 462) [SID131506501]
- two-siRNA summed score (-2 to +2): 0

LOC402095 [SID131520551]
- two-siRNA summed score (-2 to +2): 1

DKFZp547K054 [SID131510004]
- two-siRNA summed score (-2 to +2): 0

MBD3L2 (methyl-CpG binding domain protein 3 like 2) [SID131522757]
- two-siRNA summed score (-2 to +2): 1

ANKRD40 (ankyrin repeat domain 40) [SID131518065]
- two-siRNA summed score (-2 to +2): 0

CALHM3 (calcium homeostasis modulator 3) [SID131508394]
- two-siRNA summed score (-2 to +2): 0

AFF3 (ALF transcription elongation factor 3) [SID131514463]
- two-siRNA summed score (-2 to +2): 0

OR2T29 (olfactory receptor family 2 subfamily T member 29) [SID131517522]
- two-siRNA summed score (-2 to +2): 0

SPINT1 (serine peptidase inhibitor, Kunitz type 1) [SID131518278]
- two-siRNA summed score (-2 to +2): 0

PPP1R14D (protein phosphatase 1 regulatory inhibitor subunit 14D) [SID131502758]
- two-siRNA summed score (-2 to +2): -1

CRBN (cereblon) [SID131509987]
- two-siRNA summed score (-2 to +2): 0

LRRC52 (leucine rich repeat containing 52) [SID131522281]
- two-siRNA summed score (-2 to +2): 1

ANKRD27 (ankyrin repeat domain 27) [SID131514513]
- two-siRNA summed score (-2 to +2): 0

MOB4 (MOB family member 4, phocein) [SID131508244]
- two-siRNA summed score (-2 to +2): 0

POLR1A (RNA polymerase I subunit A) [SID131520906]
- two-siRNA summed score (-2 to +2): 1

SP2 (Sp2 transcription factor) [SID131520588]
- two-siRNA summed score (-2 to +2): 1

UBA3 (ubiquitin like modifier activating enzyme 3) [SID131502309]
- two-siRNA summed score (-2 to +2): -1

SPRY4 (sprouty RTK signaling antagonist 4) [SID131509159]
- two-siRNA summed score (-2 to +2): 0

KIAA0819 [SID131504227]
- two-siRNA summed score (-2 to +2): 0

TVP23C (trans-golgi network vesicle protein 23 homolog C) [SID131522086]
- two-siRNA summed score (-2 to +2): 1

MFSD2A (MFSD2 lysolipid transporter A, lysophospholipid) [SID131516815]
- two-siRNA summed score (-2 to +2): 0

CCDC183 (coiled-coil domain containing 183) [SID131508571]
- two-siRNA summed score (-2 to +2): 0

FLJ34236 [SID131505977]
- two-siRNA summed score (-2 to +2): 0

DAB1 (DAB adaptor protein 1) [SID131516474]
- two-siRNA summed score (-2 to +2): 0

TBL1Y (transducin beta like 1 Y-linked) [SID131514351]
- two-siRNA summed score (-2 to +2): 0

SHISAL2A (shisa like 2A) [SID131511680]
- two-siRNA summed score (-2 to +2): 0

ASIP (agouti signaling protein) [SID131508185]
- two-siRNA summed score (-2 to +2): 0

BRK1 (BRICK1 subunit of SCAR/WAVE actin nucleating complex) [SID131510819]
- two-siRNA summed score (-2 to +2): 0

LINC03019 (long independently transcribed non-coding RNA 3019) [SID131519378]
- two-siRNA summed score (-2 to +2): 1

ADAMTS20 (ADAM metallopeptidase with thrombospondin type 1 motif 20) [SID131507697]
- two-siRNA summed score (-2 to +2): 0
